Assay results reported in PubChem BioAssay AID328 (DTP/NCI, 2004).
The list shows only some results of the screen, not a fair sample: it is rich in T/C values a quarter to a half above the control, in often repeated tests (any T/C) and in doses without a T/C. Other doses and runs of a compound stand elsewhere. T/C: endpoint of the treated group in % of that of the vehicle group. Some doses have a count of surviving animals in place of a T/C: the source files T/C as zero there, which appears to mark a toxic dose or a test without result, not a measured value. Some survivor counts are full or nearly so, which does not show that the dose was tolerated: survival well below the control is almost never listed, so the zero probably covers shortened survival too. Survivors were counted at the toxicity check, usually on the fifth day, unless a day is given; later deaths do not show. Schedule codes are those of the source, taken here to give the interval after Q, in days (D) or hours (H), and the number of doses after X. Some doses were run more than once; the results are listed from low to high. Counts like (3×) say how often a value occurs here. Where survival is the endpoint, the PubChem record calls one and a half times the control and up active, and a quarter to a half above the control has no call in these data; cut-offs in other NCI protocols can differ. Some T/C values are followed by the survivors on the day toxicity was checked, most often the fifth; where none is given, no animal had died by that day.

System: BDF1 mice, P388 leukemia ip, median survival T/C
Test: NCI In Vivo Anticancer Drug Screen. Data for tumor model P388 Leukemia (intraperitoneal) in B6D2F1 (BDF1) mice
Details: T/C endpoint: median survival time, higher T/C = longer survival
Method in brief: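 Survival ratio, drug arm over vehicle arm, in mice with a transplanted tumour.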

[1] = dose: 200.0 mg/kg/injection, schedule: Q01DX001 (ip), vehicle: Klucel (hydroxypropylcellulose) (HPC)
[2] = dose: 200.0 mg/kg/injection, schedule: Q01DX009 (ip), vehicle: Klucel (hydroxypropylcellulose) (HPC)
[3] = dose: 400.0 mg/kg/injection, schedule: Q01DX001 (ip), vehicle: Klucel (hydroxypropylcellulose) (HPC)
[4] = dose: 400.0 mg/kg/injection, schedule: Q04DX002 (ip), vehicle: Klucel (hydroxypropylcellulose) (HPC)
[5] = dose: 400.0 mg/kg/injection, schedule: Q04DX003 (ip), vehicle: Klucel (hydroxypropylcellulose) (HPC)

SMILES: CC(=O)NNC(=O)c1ccccn1
- survivor count (dose: 100.0 mg/kg/injection, schedule: Q04DX003 (ip), vehicle: Klucel (hydroxypropylcellulose) (HPC)): 3 of 3
- survivor count (dose: 150.0 mg/kg/injection, schedule: Q01DX009 (ip), vehicle: water): 0 of 6
- T/C [1]: 88, 91, 92, 94 (2×), 95, 98, 99, 100 (6×), 101 (3×), 102, 104 (2×), 106, 108, 109, 110 (2×), 111, 112, 118, 120 % of control
- survivor count [1]: 6 of 6
- T/C (dose: 200.0 mg/kg/injection, schedule: Q01DX005 (ip), vehicle: Klucel (hydroxypropylcellulose) (HPC), evaluated on day 30): 88, 92, 92 [5 of 6 alive], 95 [2 of 3 alive], 96 [5 of 6 alive], 97, 98 [5 of 6 alive], 99, 100, 100 [5 of 6 alive], 101, 105 (2×), 107, 109, 114, 114 [2 of 3 alive], 116, 116 [5 of 6 alive], 117, 121, 139 % of control
- T/C (dose: 200.0 mg/kg/injection, schedule: Q01DX005 (ip), vehicle: Klucel (hydroxypropylcellulose) (HPC), evaluated on day 35): 105 and 108 % of control [5 of 6 alive]
- survivor count (dose: 200.0 mg/kg/injection, schedule: Q01DX005 (ip), vehicle: Klucel (hydroxypropylcellulose) (HPC)): 0 of 3, 1 of 3, 3 of 6, 3 of 3, 6 of 6
- T/C [2]: 86, 88 [5 of 6 alive], 90, 92 [2 of 3 alive], 92 [5 of 6 alive], 94, 95, 96, 97 (2×), 98, 100 (2×), 101, 102, 103, 106, 107, 109 [2 of 3 alive], 110, 112 (2×), 118 % of control [2 of 3 alive]
- survivor count [2]: 0 of 3, 3 of 6, 2 of 3, 4 of 6, 5 of 6, 3 of 3, 6 of 6 (2×)
- survivor count (dose: 200.0 mg/kg/injection, schedule: Q01DX009 (ip), vehicle: water): 0 of 6
- survivor count (dose: 200.0 mg/kg/injection, schedule: Q01DX009 (oral), vehicle: water): 3 of 6
- T/C (dose: 200.0 mg/kg/injection, schedule: Q04DX002 (ip), vehicle: Klucel (hydroxypropylcellulose) (HPC), evaluated on day 30): 87 (2×), 88, 90, 95 (2×), 96, 98, 99 [5 of 6 alive], 100 (2×), 101, 102 (2×), 103, 104, 105 (2×), 106, 107, 109, 110 (3×), 111, 112 (2×), 120 [5 of 6 alive], 144 % of control [2 of 3 alive]
- T/C (dose: 200.0 mg/kg/injection, schedule: Q04DX002 (ip), vehicle: Klucel (hydroxypropylcellulose) (HPC), evaluated on day 35): 102 % of control
- survivor count (dose: 200.0 mg/kg/injection, schedule: Q04DX002 (ip), vehicle: Klucel (hydroxypropylcellulose) (HPC)): 2 of 3 and 6 of 6
- T/C (dose: 200.0 mg/kg/injection, schedule: Q04DX003 (ip), vehicle: Klucel (hydroxypropylcellulose) (HPC), evaluated on day 30): 86, 87, 89, 94, 95, 96 (2×), 98, 99, 99 [4 of 6 alive], 99 [5 of 6 alive], 100 (3×), 100 [2 of 3 alive], 101, 102, 103, 104, 106, 106 [2 of 3 alive], 108, 112, 116, 117, 120, 142 % of control
- T/C (dose: 200.0 mg/kg/injection, schedule: Q04DX003 (ip), vehicle: Klucel (hydroxypropylcellulose) (HPC), evaluated on day 35): 111 % of control
- survivor count (dose: 200.0 mg/kg/injection, schedule: Q04DX003 (ip), vehicle: Klucel (hydroxypropylcellulose) (HPC)): 3 of 6 and 3 of 3
- survivor count (dose: 256.0 mg/kg/injection, schedule: Q01DX009 (ip), vehicle: saline): 5 of 10
- survivor count (dose: 256.0 mg/kg/injection, schedule: Q01DX009 (oral), vehicle: saline): 8 of 10
- survivor count (dose: 256.0 mg/kg/injection, schedule: Q08DX002 (ip), vehicle: saline): 10 of 10
- T/C [3]: 91 [5 of 6 alive], 93 [2 of 3 alive], 110 % of control
- survivor count [3]: 0 of 3, 0 of 6, 1 of 6, 1 of 3, 2 of 6
- survivor count (dose: 400.0 mg/kg/injection, schedule: Q01DX009 (oral), vehicle: water): 0 of 6
- T/C [4]: 99 and 99 % of control [5 of 6 alive]
- survivor count [4]: 0 of 3, 0 of 6 (2×), 1 of 6, 1 of 3, 2 of 6, 3 of 6
- T/C [5]: 87 [2 of 3 alive] and 90 % of control [4 of 6 alive]
- survivor count [5]: 0 of 3, 0 of 6 (2×), 1 of 6, 1 of 3, 2 of 6, 3 of 6, 2 of 3
- survivor count (dose: 512.0 mg/kg/injection, schedule: Q01DX001 (ip), vehicle: saline): 6 of 10
- survivor count (dose: 512.0 mg/kg/injection, schedule: Q01DX001 (oral), vehicle: saline): 5 of 10
- survivor count (dose: 512.0 mg/kg/injection, schedule: Q01DX009 (oral), vehicle: saline): 0 of 10
- survivor count (dose: 512.0 mg/kg/injection, schedule: Q04DX003 (ip), vehicle: saline): 0 of 10
- survivor count (dose: 512.0 mg/kg/injection, schedule: Q08DX002 (ip), vehicle: saline): 4 of 10
- survivor count (dose: 1024.0 mg/kg/injection, schedule: Q01DX001 (oral), vehicle: saline): 0 of 10
